Laboratory results published in PMC10954452.
Read-outs that look alike come from different tables or passages of the source. These are yes or no findings as the source states them, for the method shown. In cells and extracts the contact can be indirect. Some entries that bind do so weakly or less than the wild type.

Sequences of proteins named here, by UniProt entry; tags and fusion partners are left off.
UniProt Q92793: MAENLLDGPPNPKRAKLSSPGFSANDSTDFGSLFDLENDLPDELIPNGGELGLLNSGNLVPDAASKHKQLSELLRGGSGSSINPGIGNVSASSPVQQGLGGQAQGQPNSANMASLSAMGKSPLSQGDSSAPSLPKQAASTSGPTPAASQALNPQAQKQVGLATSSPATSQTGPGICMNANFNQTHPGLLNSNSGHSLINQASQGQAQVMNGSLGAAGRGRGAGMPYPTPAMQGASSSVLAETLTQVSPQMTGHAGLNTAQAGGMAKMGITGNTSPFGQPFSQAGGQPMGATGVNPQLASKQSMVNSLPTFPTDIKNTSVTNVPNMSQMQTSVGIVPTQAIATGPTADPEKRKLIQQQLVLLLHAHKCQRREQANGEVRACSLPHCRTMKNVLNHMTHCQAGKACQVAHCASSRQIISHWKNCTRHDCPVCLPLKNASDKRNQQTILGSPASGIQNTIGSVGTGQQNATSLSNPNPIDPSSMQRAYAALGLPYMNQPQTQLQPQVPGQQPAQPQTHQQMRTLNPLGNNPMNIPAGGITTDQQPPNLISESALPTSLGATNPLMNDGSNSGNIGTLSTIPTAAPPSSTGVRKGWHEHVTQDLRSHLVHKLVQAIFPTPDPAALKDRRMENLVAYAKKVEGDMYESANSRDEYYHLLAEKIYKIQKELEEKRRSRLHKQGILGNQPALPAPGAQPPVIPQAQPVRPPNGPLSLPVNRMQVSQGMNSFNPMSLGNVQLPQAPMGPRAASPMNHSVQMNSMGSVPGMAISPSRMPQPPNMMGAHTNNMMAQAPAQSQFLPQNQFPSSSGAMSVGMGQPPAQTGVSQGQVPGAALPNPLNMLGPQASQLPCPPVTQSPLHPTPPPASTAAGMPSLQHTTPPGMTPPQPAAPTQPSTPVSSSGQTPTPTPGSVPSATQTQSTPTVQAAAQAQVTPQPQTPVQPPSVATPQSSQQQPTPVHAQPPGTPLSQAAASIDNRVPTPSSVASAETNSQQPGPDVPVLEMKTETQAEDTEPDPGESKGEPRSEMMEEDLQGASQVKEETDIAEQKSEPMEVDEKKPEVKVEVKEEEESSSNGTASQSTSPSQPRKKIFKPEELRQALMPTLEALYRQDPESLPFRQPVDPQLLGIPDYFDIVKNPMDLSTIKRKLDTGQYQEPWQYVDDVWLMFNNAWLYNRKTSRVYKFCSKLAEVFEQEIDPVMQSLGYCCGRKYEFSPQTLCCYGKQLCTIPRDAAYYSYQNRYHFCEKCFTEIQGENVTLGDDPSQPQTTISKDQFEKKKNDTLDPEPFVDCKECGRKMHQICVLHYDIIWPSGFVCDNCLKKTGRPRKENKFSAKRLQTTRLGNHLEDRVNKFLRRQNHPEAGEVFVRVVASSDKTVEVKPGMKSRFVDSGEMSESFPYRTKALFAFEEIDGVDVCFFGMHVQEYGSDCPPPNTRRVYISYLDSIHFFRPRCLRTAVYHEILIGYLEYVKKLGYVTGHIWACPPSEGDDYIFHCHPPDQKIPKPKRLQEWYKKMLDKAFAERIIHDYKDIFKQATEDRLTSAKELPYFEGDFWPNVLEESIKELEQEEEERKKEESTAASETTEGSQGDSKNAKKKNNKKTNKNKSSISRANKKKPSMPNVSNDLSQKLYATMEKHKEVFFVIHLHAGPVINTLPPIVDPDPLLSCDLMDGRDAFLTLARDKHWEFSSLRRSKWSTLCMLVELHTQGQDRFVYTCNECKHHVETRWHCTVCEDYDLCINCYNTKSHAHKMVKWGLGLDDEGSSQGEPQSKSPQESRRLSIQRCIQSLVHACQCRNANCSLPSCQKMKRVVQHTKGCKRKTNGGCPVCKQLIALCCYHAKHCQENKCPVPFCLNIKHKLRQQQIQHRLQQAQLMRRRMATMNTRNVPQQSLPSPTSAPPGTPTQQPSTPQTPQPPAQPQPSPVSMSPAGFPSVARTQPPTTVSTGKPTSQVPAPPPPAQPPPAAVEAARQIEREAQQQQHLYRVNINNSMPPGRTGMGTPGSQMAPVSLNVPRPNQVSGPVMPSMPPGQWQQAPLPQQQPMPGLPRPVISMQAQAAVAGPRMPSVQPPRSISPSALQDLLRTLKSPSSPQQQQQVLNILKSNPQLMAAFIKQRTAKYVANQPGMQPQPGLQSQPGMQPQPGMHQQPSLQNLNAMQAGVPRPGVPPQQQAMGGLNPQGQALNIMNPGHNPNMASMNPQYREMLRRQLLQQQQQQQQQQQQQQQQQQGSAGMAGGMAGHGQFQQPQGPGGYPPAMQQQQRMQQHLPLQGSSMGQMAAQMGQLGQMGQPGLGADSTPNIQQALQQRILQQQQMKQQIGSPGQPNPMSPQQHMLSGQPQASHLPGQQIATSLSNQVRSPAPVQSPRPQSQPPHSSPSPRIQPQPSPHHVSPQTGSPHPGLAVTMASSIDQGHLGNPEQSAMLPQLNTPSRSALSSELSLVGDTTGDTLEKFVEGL
UniProt P12956: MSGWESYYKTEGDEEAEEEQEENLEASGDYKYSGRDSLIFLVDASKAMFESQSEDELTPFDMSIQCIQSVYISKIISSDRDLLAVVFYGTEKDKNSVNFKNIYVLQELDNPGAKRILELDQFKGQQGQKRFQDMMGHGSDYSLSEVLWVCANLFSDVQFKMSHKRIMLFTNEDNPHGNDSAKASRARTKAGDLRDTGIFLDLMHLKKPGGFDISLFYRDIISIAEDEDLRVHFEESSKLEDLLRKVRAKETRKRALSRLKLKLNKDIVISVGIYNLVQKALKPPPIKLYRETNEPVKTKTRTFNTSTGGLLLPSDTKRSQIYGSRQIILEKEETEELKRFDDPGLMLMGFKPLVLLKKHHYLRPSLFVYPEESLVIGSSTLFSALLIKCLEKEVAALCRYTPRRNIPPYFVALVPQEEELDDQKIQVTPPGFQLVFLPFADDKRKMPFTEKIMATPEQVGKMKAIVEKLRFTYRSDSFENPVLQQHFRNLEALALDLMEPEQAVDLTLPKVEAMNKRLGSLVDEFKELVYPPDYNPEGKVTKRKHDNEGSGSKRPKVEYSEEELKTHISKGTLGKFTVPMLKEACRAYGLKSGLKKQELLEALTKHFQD
UniProt Q09472: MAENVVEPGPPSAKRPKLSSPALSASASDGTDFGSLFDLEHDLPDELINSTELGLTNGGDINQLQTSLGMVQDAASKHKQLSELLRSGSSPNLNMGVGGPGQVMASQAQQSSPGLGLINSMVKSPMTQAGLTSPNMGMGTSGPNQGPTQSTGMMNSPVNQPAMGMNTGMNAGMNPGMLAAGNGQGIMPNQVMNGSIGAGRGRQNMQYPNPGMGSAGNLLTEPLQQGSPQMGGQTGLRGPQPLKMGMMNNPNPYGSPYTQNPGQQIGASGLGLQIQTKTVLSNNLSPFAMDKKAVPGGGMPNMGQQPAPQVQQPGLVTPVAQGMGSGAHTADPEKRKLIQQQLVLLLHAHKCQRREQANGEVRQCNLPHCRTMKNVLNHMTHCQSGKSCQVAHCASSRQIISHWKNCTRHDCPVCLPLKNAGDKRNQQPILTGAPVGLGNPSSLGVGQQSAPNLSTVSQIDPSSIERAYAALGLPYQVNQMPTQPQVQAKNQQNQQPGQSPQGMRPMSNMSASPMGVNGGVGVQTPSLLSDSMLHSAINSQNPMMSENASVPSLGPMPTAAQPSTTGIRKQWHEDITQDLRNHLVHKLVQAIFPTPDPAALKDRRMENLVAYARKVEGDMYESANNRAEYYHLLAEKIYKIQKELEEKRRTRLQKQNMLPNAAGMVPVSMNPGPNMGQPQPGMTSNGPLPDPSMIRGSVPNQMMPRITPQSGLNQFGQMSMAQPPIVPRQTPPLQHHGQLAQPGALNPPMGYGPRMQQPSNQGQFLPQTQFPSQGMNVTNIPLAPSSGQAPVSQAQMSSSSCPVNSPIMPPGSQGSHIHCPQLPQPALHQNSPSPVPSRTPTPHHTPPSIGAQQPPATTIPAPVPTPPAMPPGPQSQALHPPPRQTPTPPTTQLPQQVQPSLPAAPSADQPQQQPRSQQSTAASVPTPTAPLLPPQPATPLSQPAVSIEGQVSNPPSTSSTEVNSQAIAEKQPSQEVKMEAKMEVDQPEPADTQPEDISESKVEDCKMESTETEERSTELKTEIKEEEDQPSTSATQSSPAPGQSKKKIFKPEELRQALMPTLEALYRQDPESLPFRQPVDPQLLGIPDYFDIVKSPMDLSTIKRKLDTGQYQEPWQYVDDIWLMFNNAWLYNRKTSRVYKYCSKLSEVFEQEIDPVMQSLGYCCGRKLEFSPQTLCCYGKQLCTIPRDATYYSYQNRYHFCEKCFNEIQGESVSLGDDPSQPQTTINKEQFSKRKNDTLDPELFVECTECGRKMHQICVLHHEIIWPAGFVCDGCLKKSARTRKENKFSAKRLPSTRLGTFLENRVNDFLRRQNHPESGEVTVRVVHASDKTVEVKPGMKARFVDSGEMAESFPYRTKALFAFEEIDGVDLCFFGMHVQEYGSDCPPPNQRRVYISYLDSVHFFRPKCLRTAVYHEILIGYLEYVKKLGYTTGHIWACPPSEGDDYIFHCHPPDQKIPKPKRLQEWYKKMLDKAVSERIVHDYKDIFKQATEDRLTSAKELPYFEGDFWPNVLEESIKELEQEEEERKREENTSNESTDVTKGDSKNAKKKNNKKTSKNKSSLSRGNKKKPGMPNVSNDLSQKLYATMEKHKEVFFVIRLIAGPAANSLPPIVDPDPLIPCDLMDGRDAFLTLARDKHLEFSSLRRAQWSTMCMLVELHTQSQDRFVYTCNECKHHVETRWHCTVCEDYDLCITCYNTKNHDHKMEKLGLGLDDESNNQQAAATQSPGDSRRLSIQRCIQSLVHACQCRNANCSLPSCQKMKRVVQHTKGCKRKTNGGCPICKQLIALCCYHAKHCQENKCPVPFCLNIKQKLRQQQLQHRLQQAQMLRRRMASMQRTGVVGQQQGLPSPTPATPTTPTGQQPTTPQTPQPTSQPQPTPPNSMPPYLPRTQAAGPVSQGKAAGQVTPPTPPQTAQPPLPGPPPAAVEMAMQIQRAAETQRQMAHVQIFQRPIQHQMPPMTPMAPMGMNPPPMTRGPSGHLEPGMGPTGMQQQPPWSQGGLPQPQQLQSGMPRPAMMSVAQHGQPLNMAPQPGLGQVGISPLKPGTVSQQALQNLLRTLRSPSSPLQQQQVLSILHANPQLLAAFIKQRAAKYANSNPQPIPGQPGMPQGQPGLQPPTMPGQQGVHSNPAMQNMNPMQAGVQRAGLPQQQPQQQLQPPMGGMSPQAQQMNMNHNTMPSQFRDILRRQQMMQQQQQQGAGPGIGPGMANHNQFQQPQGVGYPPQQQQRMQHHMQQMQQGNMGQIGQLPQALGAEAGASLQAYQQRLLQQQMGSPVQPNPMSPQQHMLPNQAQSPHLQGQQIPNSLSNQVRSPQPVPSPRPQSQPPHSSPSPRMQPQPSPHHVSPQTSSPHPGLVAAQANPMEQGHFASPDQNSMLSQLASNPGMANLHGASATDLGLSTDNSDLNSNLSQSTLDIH

B1: DNA polymerase eta (Pol η) (enzyme, UniProt Q9Y253 1-713)
chain: MATGQDRVVALVDMDCFFVQVEQRQNPHLRNKPCAVVQYKSWKGGGIIAVSYEARAFGVTRSMWADDAKKLCPDLLLAQVRESRGKANLTKYREASVEVMEIMSRFAVIERASIDEAYVDLTSAVQERLQKLQGQPISADLLPSTYIEGLPQGPTTAEETVQKEGMRKQGLFQWLDSLQIDNLTSPDLQLTVGAVIVEEMRAAIERETGFQCSAGISHNKVLAKLACGLNKPNRQTLVSHGSVPQLFSQMPIRKIRSLGGKLGASVIEILGIEYMGELTQFTESQLQSHFGEKNGSWLYAMCRGIEHDPVKPRQLPKTIGCSKNFPGKTALATREQVQWWLLQLAQELEERLTKDRNDNDRVATQLVVSIRVQGDKRLSSLRRCCALTRYDAHKMSHDAFTVIKNCNTSGIQTEWSPPLTMLFLCATKFSASAPSSSTDITSFLSSDPSSLPKVPVTSSEAKTQGSGPAVTATKKATTSLESFFQKAAERQKVKEASLSSLTAPTQAPMSNSPSKPSLPFQTSQSTGTEPFFKQKSLLLKQKQLNNSSVSSPQQNPWSNCKALPNSLPTEYPGCVPVCEGVSKLEESSKATPAEMDLAHNSQSMHASSASKSVLEVTQKATPNPSLLAAEDQVPCEKCGSLVPVWDMPEHMDYHFALELQKSFLQPHSSNPQVVSAVSHQGKRNPKSPLACTNKRPRPEGMQTLESFFKPLTH

Key:
[1] = biological target: K226 acetylated polynucleotide kinase 3'-phosphatase (AcK226 PNKP), from WT-PNKP-FLAG cells (human) (UniProt Q96T60); assay: co-IP; IP with 10 ug rabbit polyclonal anti-AcK226 Ab (control rabbit IgG) from benzonase-treated chromatin fraction of WT-PNKP-FLAG HEK293 cells, mock or Bleo-treated; immunocomplex probed by Western blot
[2] = biological target: K142 acetylated polynucleotide kinase 3'-phosphatase (AcK142 PNKP), from WT-PNKP-FLAG cells (human) (UniProt Q96T60); assay: co-IP; IP with 10 ug rabbit polyclonal anti-AcK142 Ab (control rabbit IgG) from benzonase-treated chromatin fraction of WT-PNKP-FLAG HEK293 cells, mock or GO-treated; immunocomplex probed by Western blot
[3] = biological target: K226 acetylated polynucleotide kinase 3'-phosphatase (AcK226 PNKP), from WT-PNKP-FLAG cells (human) (UniProt Q96T60); assay: co-IP; IP with 10 ug rabbit polyclonal anti-AcK226 Ab (control rabbit IgG) from benzonase-treated chromatin fraction of WT-PNKP-FLAG HEK293 cells, mock or Bleo-treated; immunocomplex probed by Western blot; remark: listed apart in the source

| Molecule | binding [1] | binding [2] | binding [3] |
| --- | --- | --- | --- |
| CREB-binding protein (CBP) (from UniProt Q92793 1-2442) (enzyme) | binds |  |  |
| Ku70 (from UniProt P12956 1-609) | binds | binds |  |
| p300 (from UniProt Q09472 1-2414) (enzyme) |  | binds |  |
| B1 |  |  | binds |
